These results are taken from the supplement of paper PMC10735217.

Counter-ions that a name gives are not always drawn. Some of the results follow. This data set is noisy: repeats of one test often differ as much as different tests do.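 Human kidney-derived cells stably carry a construct in which eight TEAD-binding elements drive luciferase, measured by luminescence in a drug-repurposing library screen. A hit is any compound whose signal exceeds the plate mean by more than five robust Z scores.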

In the assay the test system is HEK293A TEAD-LUC reporter. Kind of assay: TEAD-luciferase reporter activity (YAP activation), robust Z score vs plate; higher = stronger YAP/TEAD activation. To be noted: 24 h. (In general: In a reporter assay the amount or activity of a reporter protein is the signal.)

`CC(=O)NC[C@H]1CN(c2ccc(OC3CCN(C(=O)CO)CC3)c(F)c2)C(=O)O1`: the TEAD-luciferase reporter activity is inactive: -0.375 (compound concentration: 200 nM), inactive: -0.961 (compound concentration: 2 uM) and inactive: -1.52 (compound concentration: 10 uM).

On to `O=C(NC1CCNCC1)c1n[nH]cc1NC(=O)c1c(Cl)cccc1Cl`, for which the TEAD-luciferase reporter activity (compound concentration: 200 nM) is inactive: 0.532, the TEAD-luciferase reporter activity (compound concentration: 2 uM) is inactive: -2.22 and the TEAD-luciferase reporter activity (compound concentration: 10 uM) is active: 13.4.

Regarding `C[C@@H](Oc1cc(-c2cnn(C3CCNCC3)c2)cnc1N)c1c(Cl)ccc(F)c1Cl` [crizotinib], the TEAD-luciferase reporter activity is inactive: 1.37 (compound concentration: 200 nM), inactive: -1.55 (compound concentration: 2 uM) and inactive: 3.81 (compound concentration: 10 uM).

On to `N#C/C(=C1/Nc2ccccc2S1)c1ccnc(NCCc2cccnc2)n1`, for which, for the setting “compound concentration: 2 uM”, the TEAD-luciferase reporter activity is inactive: -2.

With `N#C/C(=C1/Nc2ccccc2S1)c1ccnc(NCCc2cccnc2)n1` [JNK Inhibitor V], the TEAD-luciferase reporter activity is inactive: 0.621 (compound concentration: 200 nM) and inactive: 0.151 (compound concentration: 10 uM).

In the case of `CCN1CCN=C1CNC(=O)c1cc(Cl)c(N)cc1OC`, the TEAD-luciferase reporter activity is inactive: -1.19 (compound concentration: 200 nM), inactive: 0.555 (compound concentration: 2 uM) and inactive: 2.27 (compound concentration: 10 uM).

Regarding `Cc1cn([C@@H]2O[C@H](CO)[C@@H](O)[C@@H]2F)c(=O)[nH]c1=O`, the TEAD-luciferase reporter activity (compound concentration: 200 nM) is inactive: -0.512, the TEAD-luciferase reporter activity (compound concentration: 2 uM) is inactive: -2.01 and the TEAD-luciferase reporter activity (compound concentration: 10 uM) was inactive: -0.0222.

As to `N#C[C@@H]1CCCN1C(=O)[C@@H](N)CN1C(=O)[C@@H]2C[C@H]1CN2S(=O)(=O)c1cccc(F)c1`, the TEAD-luciferase reporter activity by setting is: (compound concentration: 200 nM) inactive: -2.11; (compound concentration: 2 uM) inactive: -2.34; (compound concentration: 10 uM) inactive: -0.14.

Turning to `O=C[C@@H]1CCCN1C(=O)CCC(=O)NCc1ccc(Cl)cc1`, the TEAD-luciferase reporter activity by setting is: (compound concentration: 200 nM) inactive: 0.354; (compound concentration: 2 uM) inactive: -0.718; (compound concentration: 10 uM) inactive: 0.925.

For the compound `CSCCC(NC(=O)COc1ccccc1)C(=O)OCC(=O)Nc1ccccc1` (stereo not given), the TEAD-luciferase reporter activity (compound concentration: 200 nM) is inactive: 1.44 and the TEAD-luciferase reporter activity (compound concentration: 2 uM) was inactive: -0.121.

With `Cc1cc2c(cc1S(N)(=O)=O)S(=O)(=O)CCC2`, the TEAD-luciferase reporter activity by setting is: (compound concentration: 200 nM) inactive: 0.00128; (compound concentration: 2 uM) inactive: -0.192; (compound concentration: 10 uM) inactive: 0.883.

Turning to `N=C(N)NCCC[C@@H]1NC(=O)[C@H](CCCNC(=N)N)NC(=O)[C@H](CCCNC(=N)N)NC(=O)[C@H](CCCNC(=N)N)NC(=O)[C@H](CCCNC(=N)N)NC(=O)[C@H](CCCNC(=N)N)NC(=O)[C@H](CCCNC(=N)N)NC1=O`, the TEAD-luciferase reporter activity (compound concentration: 200 nM) is inactive: -1.62, the TEAD-luciferase reporter activity (compound concentration: 2 uM) is inactive: 0.501 and the TEAD-luciferase reporter activity (compound concentration: 10 uM) was inactive: -0.826.

For `O=C(CNc1ccc2ccccc2c1)N/N=C/c1cc(Br)c(O)c(Br)c1O`, the TEAD-luciferase reporter activity is, setting by setting: (compound concentration: 200 nM) inactive: -2.08; (compound concentration: 2 uM) inactive: -0.434; (compound concentration: 10 uM) inactive: -1.37.

As to `CC/C=C\C/C=C\C/C=C\C/C=C\C/C=C\C/C=C\CCC(=O)N[C@@H](CCCCN)C(=O)O` [Epavir], the TEAD-luciferase reporter activity reads like this: (compound concentration: 200 nM) inactive: -0.746; (compound concentration: 2 uM) inactive: -0.497; (compound concentration: 10 uM) inactive: -1.45.

Consider `Nc1ccc([C@@H](O)CNCCOc2ccc(CC(=O)O)cc2)cn1`, for which the TEAD-luciferase reporter activity is inactive: -0.678 (compound concentration: 200 nM) and inactive: 1.19 (compound concentration: 10 uM).

For `Cc1cc(C)cc(C(=O)N2CCC(NCc3ccnc4ccccc34)CC2Cc2ccccc2)c1` (stereo not given), the TEAD-luciferase reporter activity by setting is: (compound concentration: 200 nM) inactive: 0.709; (compound concentration: 2 uM) inactive: -0.486; (compound concentration: 10 uM) inactive: 0.647.

With `CC(C)(Oc1ccccc1)C(=O)OCCN1CCOCC1`, the TEAD-luciferase reporter activity is inactive: -1.53 (compound concentration: 200 nM), inactive: -1.82 (compound concentration: 2 uM) and active: 8.05 (compound concentration: 10 uM).

In the case of `CN1CCN(c2ccc3nc(-c4c(N)c5c(F)cccc5[nH]c4=O)[nH]c3c2)CC1` [dovitinib lactate], the TEAD-luciferase reporter activity (compound concentration: 2 uM) is inactive: 2.07.

For `CN1CCN(c2ccc3nc(-c4c(N)c5c(F)cccc5[nH]c4=O)[nH]c3c2)CC1`, the TEAD-luciferase reporter activity was inactive: 0.83 (compound concentration: 200 nM) and inactive: 1.42 (compound concentration: 10 uM).

For the compound `Cc1ccc(NC(=O)c2ccc(Cl)cc2Cl)c(C(=O)O)c1`, the TEAD-luciferase reporter activity by setting is: (compound concentration: 200 nM) inactive: 1.01; (compound concentration: 2 uM) inactive: -0.555; (compound concentration: 10 uM) inactive: 0.648.

On to `CC1CC1C(=O)Nc1ccc(C(=O)NC2CCCN(Cc3cc(Cl)ccc3O)C2)cc1` (stereo not given), for which the TEAD-luciferase reporter activity is inactive: -0.861 (compound concentration: 200 nM), inactive: -0.524 (compound concentration: 2 uM) and inactive: 0.415 (compound concentration: 10 uM).

Take `COc1ccc(CNC(=O)c2cc([N+](=O)[O-])ccc2NC(C)CO)cc1OC` (stereo not given): the TEAD-luciferase reporter activity (compound concentration: 200 nM) was inactive: -0.664, the TEAD-luciferase reporter activity (compound concentration: 2 uM) was inactive: 0.00155 and the TEAD-luciferase reporter activity (compound concentration: 10 uM) was active: 5.24.

Turning to `O=C(Nc1c[n+](N2CCOCC2)no1)C1CCCCC1`, the TEAD-luciferase reporter activity was inactive: 4.18 (compound concentration: 200 nM), inactive: -0.356 (compound concentration: 2 uM) and inactive: -0.0268 (compound concentration: 10 uM).

As for `Cn1c(=O)c2c(ncn2CC(=O)Nc2ccc(-c3ccccc3)nn2)n(C)c1=O`, the TEAD-luciferase reporter activity (compound concentration: 200 nM) is inactive: 1.39, the TEAD-luciferase reporter activity (compound concentration: 2 uM) was inactive: -1.48 and the TEAD-luciferase reporter activity (compound concentration: 10 uM) is inactive: -0.0248.

With `COc1cc2c(cc1OC)CN(CCc1ccc(NC(=O)c3cccc4c(=O)c5cccc(OC)c5[nH]c34)cc1)CC2` [elacridar], the TEAD-luciferase reporter activity runs as follows: (compound concentration: 200 nM) inactive: 2.36; (compound concentration: 2 uM) inactive: -0.261; (compound concentration: 10 uM) inactive: -0.495.

With `COc1cc2c(cc1OC)CN(CCc1ccc(NC(=O)c3cccc4c(=O)c5cccc(OC)c5[nH]c34)cc1)CC2` [Elacridar], the TEAD-luciferase reporter activity (compound concentration: 2 uM) was inactive: -0.516.

Consider `COc1c(N2CCNC(C)C2)c(F)cc2c(=O)c(C(=O)O)cn(C3CC3)c12` (stereo not given) [gatifloxacin], for which the TEAD-luciferase reporter activity (compound concentration: 2 uM) was inactive: -1.71.

As for `COc1c(N2CCNC(C)C2)c(F)cc2c(=O)c(C(=O)O)cn(C3CC3)c12` (stereo not given) [Gatifloxacin], the TEAD-luciferase reporter activity was inactive: -0.498 (compound concentration: 200 nM) and inactive: -1.55 (compound concentration: 10 uM).

`CCCC[C@@H](NC(=O)[C@@H](Cc1cn(C(=O)OC)c2ccccc12)NC(=O)[C@H](CC(C)(C)C)NC(=O)N1[C@H](C)CCC[C@@H]1C)C(=O)[O-]`: the TEAD-luciferase reporter activity is, setting by setting: (compound concentration: 200 nM) inactive: -0.193; (compound concentration: 2 uM) inactive: 1.14; (compound concentration: 10 uM) inactive: 0.268.

Turning to `CC(C)(C)NCC(O)COc1cccc2c1SCCC2` (stereo not given) [Tertatolol hydrochloride], the TEAD-luciferase reporter activity is inactive: 2.38 (compound concentration: 200 nM), inactive: -1.08 (compound concentration: 2 uM) and inactive: 1.7 (compound concentration: 10 uM).

Consider `CCCCCCN1CCCC12Cc1ccccc1CNC2=O` (stereo not given), for which the TEAD-luciferase reporter activity by setting is: (compound concentration: 200 nM) inactive: 2.9; (compound concentration: 10 uM) inactive: -0.0843.

On to `C[C@@H](O)[C@H]1C(=O)N2C(C(=O)O)=C(S[C@@H]3CN[C@H](C(=O)N(C)C)C3)[C@H](C)[C@H]12`, for which the TEAD-luciferase reporter activity by setting is: (compound concentration: 200 nM) inactive: -0.00218; (compound concentration: 2 uM) inactive: -1.33; (compound concentration: 10 uM) inactive: -0.533.

With `C[C@]12CCC(=O)C=C1CC[C@@H]1[C@@H]2[C@@H](O)C[C@@]2(C)[C@H]1CC[C@]2(O)C(=O)COP(=O)([O-])[O-]`, the TEAD-luciferase reporter activity reads like this: (compound concentration: 200 nM) inactive: -1.2; (compound concentration: 2 uM) inactive: -0.567; (compound concentration: 10 uM) inactive: 0.835.

For the compound `O=C(Nc1cc(-c2ccncc2)nn1-c1ccccc1)c1ccccc1`, the TEAD-luciferase reporter activity is, setting by setting: (compound concentration: 200 nM) inactive: -2.34; (compound concentration: 10 uM) inactive: -0.462.

As to `CNC(=O)c1ccc2cc([C@@]3(O)CCn4cncc43)ccc2c1` [orteronel], the TEAD-luciferase reporter activity reads like this: (compound concentration: 200 nM) inactive: -0.567; (compound concentration: 2 uM) inactive: -1.79; (compound concentration: 10 uM) inactive: -2.29.
